We go through 1 compound from PMC4410016 (Cell reports, 2015).

The target in assay [1] is MtrF (Neisseria gonorrhoeae, UniProt Q9RNX2). The assay can be described thus: isothermal titration calorimetry. Format: binding. (ITC needs no label: the signal is the heat of the interaction.)
The target in assay [2] is MtrF (Neisseria gonorrhoeae, UniProt Q9RNX2, W420A). Nature of the assay: biochemical.

As usually defined, the Kd is the constant that tells how readily two partners part at equilibrium. Low values mean tighter binding, high ones weaker binding.

In the case of `Nc1ccc(S(N)(=O)=O)cc1` [sulfanilamide], the dissociation constant (Kd) on MtrF [1] is 1.14 ± 0.01 µM; at MtrF [2], 6.8 ± 1.49 µM.
